From patent US20230141177A1
These are yes or no findings as the source states them, for the method shown. Some entries that bind do so weakly or less than the wild type.

Chains of the proteins cited; added tags and fusions are not shown. Lines headed by an entry give the natural chain unless they say otherwise; changes in a name come on top.
UniProt P02769: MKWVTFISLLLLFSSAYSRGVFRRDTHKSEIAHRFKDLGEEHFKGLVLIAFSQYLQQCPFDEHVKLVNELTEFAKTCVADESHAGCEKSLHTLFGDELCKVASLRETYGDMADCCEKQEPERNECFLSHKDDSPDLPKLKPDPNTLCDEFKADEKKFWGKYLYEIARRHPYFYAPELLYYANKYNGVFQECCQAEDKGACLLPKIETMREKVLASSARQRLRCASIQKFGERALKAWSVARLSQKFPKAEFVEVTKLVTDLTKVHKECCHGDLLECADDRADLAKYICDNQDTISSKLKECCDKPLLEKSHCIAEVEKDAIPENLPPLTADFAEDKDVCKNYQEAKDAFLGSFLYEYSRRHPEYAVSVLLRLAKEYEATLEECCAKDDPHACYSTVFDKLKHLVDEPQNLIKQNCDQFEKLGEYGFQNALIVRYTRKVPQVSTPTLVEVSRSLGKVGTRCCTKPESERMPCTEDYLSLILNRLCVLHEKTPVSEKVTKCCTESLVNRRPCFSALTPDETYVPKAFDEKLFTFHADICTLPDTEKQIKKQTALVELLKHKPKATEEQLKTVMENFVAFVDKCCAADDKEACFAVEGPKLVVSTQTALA

Experiments:
[1] = molecular target: linear (CGHHQKG) (SEQ ID NO: 2) peptide-BSA (UniProt P02769); assay: SPR single cycle kinetics; IgG4 in cell supernatant captured on Protein A chip; peptide-BSA injected at four rising concentrations, 0.025 to 0.675 nM [Cont.]
[2] = molecular target: linear (CGHHQKG) (SEQ ID NO: 2) peptide-BSA (UniProt P02769); assay: SPR, purified IgG4 vs linear peptide-BSA
[3] = molecular target: linear (CGHHQKG) (SEQ ID NO: 2) peptide-BSA (UniProt P02769); assay: SPR single cycle kinetics; IgG4 in cell supernatant captured on Protein A chip; peptide-BSA injected at four rising concentrations, 0.025 to 0.675 nM

Binder | binding [1] | binding [2] | binding [3]
Clone 16 (antibody, human IgG4 S228P, kappa, V domains shown) VH: QVQLVQSGAEVKKPGASVKMSCKASGYSFTSYWINWVKQRPGQGLEWIGDVHPGRGVSTYNAKFKSRATLTLDTSISTAYMELSSLRSEDTAVYYCSRSHGNTPWFLDDWGQGTTVTVSS VL: DVLMTQSPLSLPVTLGQPASISCRSSQSIVHSNGNTYLEWYQQRPGQSPRLLIYKVSNRFSGVPDRFSGSGSGTDFTLKISRVEAEDVGVYYCFQGSHVPFTFGQGTKLEIKR | binds |  | 
Clone 6 (antibody, human IgG4 S228P, kappa, V domains shown) VH: QVQLVQSGAEVKKPGASVKMSCKASGYSFTSYWINWVKQRPGQGLEWIGDVHPGRGVSTYNAKFKSRATLTLDTSISTAYMELSSLRSEDTAVYYCSRSSPFNYWFFDVWGQGTTVTVSS VL: DVLMTQSPLSLPVTLGQPASISCRSSQSIVHSNGNTYLEWYQQRPGQSPRLLIYKVSNRFSGVPDRFSGSGSGTDFTLKISRVEAEDVGVYYCFQGSHVPFTFGQGTKLEIKR | binds |  | 
Clone 7 (antibody, human IgG4 S228P, kappa, V domains shown) VH: QVQLVQSGAEVKKPGASVKMSCKASGYSFTSYWINWVKQRPGQGLEWIGDVHPGRGVSTYNAKFKSRATLTLDTSISTAYMELSSLRSEDTAVYYCARSPSSTYWFFDVWGQGTTVTVSS VL: DVLMTQSPLSLPVTLGQPASISCRSSQSIVHSNGNTYLEWYQQRPGQSPRLLIYKVSNRFSGVPDRFSGSGSGTDFTLKISRVEAEDVGVYYCFQGSHVPFTFGQGTKLEIKR | binds |  | 
parental antibody, PMN310 humanized antibody variant VH2/Vk5 (human IgG4 S241P / kappa) (antibody, V domains shown) VH: QVQLVQSGAEVKKPGASVKMSCKASGYSFTSYWINWVKQRPGQGLEWIGDVHPGRGVSTYNAKFKSRATLTLDTSISTAYMELSSLRSEDTAVYYCSRSHGNTYWFFDVWGQGTTVTVSS VL: DVLMTQSPLSLPVTLGQPASISCRSSQSIVHSNGNTYLEWYQQRPGQSPRLLIYKVSNRFSGVPDRFSGSGSGTDFTLKISRVEAEDVGVYYCFQGSHVPFTFGQGTKLEIKR | binds | binds | 
Clone 5 (affinity matured VH with parental Vk, human IgG4 S241P / kappa) (antibody, V domains shown) VH: QVQLVQSGAEVKKPGASVKMSCKASGYSFTSYWINWVKQRPGQGLEWIGDVHPGRGVSTYNAKFKSRATLTLDTSISTAYMELSSLRSEDTAVYYCARGALSPYWFFDVWGQGTTVTVSS VL: DVLMTQSPLSLPVTLGQPASISCRSSQSIVHSNGNTYLEWYQQRPGQSPRLLIYKVSNRFSGVPDRFSGSGSGTDFTLKISRVEAEDVGVYYCFQGSHVPFTFGQGTKLEIKR |  | binds | binds
Clone 18 (antibody, human IgG4 S228P, kappa, V domains shown) VH: QVQLVQSGAEVKKPGASVKMSCKASGYSFTSYWINWVKQRPGQGLEWIGDVHPGRGVSTYNAKFKSRATLTLDTSISTAYMELSSLRSEDTAVYYCSRSHGNSPAFFDVWGQGTTVTVSS VL: DVLMTQSPLSLPVTLGQPASISCRSSQSIVHSNGNTYLEWYQQRPGQSPRLLIYKVSNRFSGVPDRFSGSGSGTDFTLKISRVEAEDVGVYYCFQGSHVPFTFGQGTKLEIKR |  |  | binds
